In PubChem BioAssay AID504834 (National Center for Advancing Translational Sciences (NCATS), 2011):
Among all 320,000 compounds or so, about 22,000 (6.9%) were called active. Inconclusive results, whose numbers are uncertain, are shown with a selection of clear calls. Calls follow the shape of the dose curve; as a rule, active = well fitted inhibition curve with a large enough effect; inconclusive = small, poorly fitted or top-dose-only effect, or another doubt; inactive = no such curve, though single readings can be large or run the other way. Potencies of inconclusive entries are doubtful fits and often do not repeat.

Experiment: Primary qHTS for delayed death inhibitors of the malarial parasite plastid, 96 hour incubation
Conditions: P. falciparum luciferase reporter growth; series mostly up to 28.7 µM
Method in brief: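 Plates of compound plus infected erythrocytes (2% hematocrit, 0.05% parasitemia final) incubate 96 hours, 37 C, 5% CO2. Detection reagent added; reduced luminescence from the parasites' luciferase reporter flags inhibition.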
Potency is read from the fitted curve at half-maximal effect.

| Structure (SMILES) | Potency |
| --- | --- |
| Cc1nc2sc(C(c3ccc(Cl)cc3)N3CCN(C(=O)c4ccco4)CC3)c(O)n2n1 (centres undefined) | inconclusive: 0.0657 µM [inhibitor, full curve, poor fit] |
| O=C(NCc1ccccn1)c1cc(Cl)ccc1OCc1ccccc1 | inactive |
| COc1ccccc1NC(=O)CSc1nnc(CC(=O)Nc2ccccc2C)n1C | inactive |
| COc1cc(C(=O)OCc2cccc(S(=O)(=O)N3CCOCC3)c2)ccc1OCC(C)C | inconclusive: 9.28 µM [inhibitor, partial curve, poor fit] |
| CN(Cc1ccccc1)C(=O)CN1C(=O)NC2(CCCCCCC2)C1=O | inconclusive: 18.5 µM [inhibitor, single point] |
| CCCCN(C(=O)c1ccc(N2CCCC2=O)cc1)c1c(N)n(Cc2ccccc2)c(=O)[nH]c1=O | inconclusive: 11.7 µM [inhibitor, single point] |
| Cc1nc(-c2ccc(C(=O)Nc3ccccc3F)cc2)cs1 | inactive |
| COC(=O)c1cc(S(=O)(=O)N2CCN(c3ccccc3F)CC2)c[nH]1 | inconclusive: 13.1 µM [inhibitor, partial curve, poor fit] |
| COc1ccc(OC)c(NC(=O)Nc2cccc3ccccc23)c1 | inconclusive: 5.86 µM [inhibitor, partial curve, poor fit] |
| COc1ccc(-c2cn(Cc3ccc(C(N)=O)cc3)c(CCN)n2)cc1 | inactive |
| Cc1ccc2oc(=O)c3cnn(CC(=O)N4CCCCCC4)c3c2c1 | active: 9.28 µM |
| CCCO/N=C1/C(=O)N(c2ccccc2)c2ccccc21 | inconclusive: 11.7 µM [inhibitor, partial curve, poor fit] |
| CC(C)c1ccc(OCC(O)CN2CCCC2)cc1 (centres undefined) | inconclusive: 18.5 µM [inhibitor, single point] |
| CCCS(=O)(=O)c1nc(S(=O)(=O)c2ccc(C)cc2)c(N2CCC3(CC2)OCCO3)s1 | inconclusive: 14.7 µM [inhibitor, single point] |
| Nc1nc2ccc(C(=O)NC3CCCCC3)cc2s1 | inconclusive: 8.28 µM [inhibitor, partial curve] |
| O=C(CN1CCCCC1)Nc1cc(Cl)ccc1Cl | inconclusive: 18.5 µM [inhibitor, single point] |
| O=C(N/N=C/c1ccccn1)c1cc(-c2ccc(Cl)s2)[nH]n1 | inconclusive: 18.5 µM [inhibitor, single point] |
| O=C(NC(=S)NNC(=O)c1ccco1)c1ccc(Br)cc1 | inconclusive: 18.5 µM [inhibitor, single point] |
| COc1cc2ccccc2cc1C(=O)N(CCN(C)C)c1nc2c(C)cccc2s1 | inconclusive: 3.7 µM [inhibitor, full curve] |

Taken from above.
O=C(NCc1ccccn1)c1cc(Cl)ccc1OCc1ccccc1 | Potency: inactive
CN(Cc1ccccc1)C(=O)CN1C(=O)NC2(CCCCCCC2)C1=O | Potency: inconclusive: 18.5 µM [inhibitor, single point]
